This is one part of the list. Most entries show no effect beyond the scatter of the controls.

Protein sequences, listed by entry. Tags and fused reporters are not part of them. Lines headed by an entry give the natural chain unless they say otherwise; changes in a name come on top.
UniProt P22907: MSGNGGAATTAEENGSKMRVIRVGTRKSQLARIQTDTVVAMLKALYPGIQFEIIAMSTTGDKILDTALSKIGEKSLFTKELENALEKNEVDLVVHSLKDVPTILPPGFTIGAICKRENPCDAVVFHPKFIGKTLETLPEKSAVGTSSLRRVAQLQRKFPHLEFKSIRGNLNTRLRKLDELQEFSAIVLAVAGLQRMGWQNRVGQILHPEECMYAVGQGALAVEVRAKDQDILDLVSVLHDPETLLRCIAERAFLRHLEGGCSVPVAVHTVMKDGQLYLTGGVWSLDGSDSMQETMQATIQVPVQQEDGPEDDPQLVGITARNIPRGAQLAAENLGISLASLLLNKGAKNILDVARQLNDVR
UniProt P24452: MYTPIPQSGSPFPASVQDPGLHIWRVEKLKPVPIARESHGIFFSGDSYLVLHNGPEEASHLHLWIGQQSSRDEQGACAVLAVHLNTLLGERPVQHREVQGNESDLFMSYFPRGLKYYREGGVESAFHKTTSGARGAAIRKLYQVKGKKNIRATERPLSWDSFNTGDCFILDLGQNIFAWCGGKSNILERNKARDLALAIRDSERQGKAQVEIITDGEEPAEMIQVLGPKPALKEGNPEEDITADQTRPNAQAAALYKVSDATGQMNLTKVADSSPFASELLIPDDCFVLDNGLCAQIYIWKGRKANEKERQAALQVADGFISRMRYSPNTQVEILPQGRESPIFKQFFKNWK
UniProt P02798: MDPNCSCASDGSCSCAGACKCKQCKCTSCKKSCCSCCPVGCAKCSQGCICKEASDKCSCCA
UniProt P23591: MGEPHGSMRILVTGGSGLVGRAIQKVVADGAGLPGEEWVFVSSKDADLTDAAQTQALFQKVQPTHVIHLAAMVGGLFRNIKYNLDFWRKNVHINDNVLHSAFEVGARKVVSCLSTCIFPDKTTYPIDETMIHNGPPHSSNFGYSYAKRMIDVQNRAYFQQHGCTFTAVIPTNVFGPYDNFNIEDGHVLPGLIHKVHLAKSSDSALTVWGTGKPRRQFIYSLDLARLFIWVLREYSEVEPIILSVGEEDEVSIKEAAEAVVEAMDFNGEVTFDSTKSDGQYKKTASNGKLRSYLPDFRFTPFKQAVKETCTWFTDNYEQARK
UniProt P22361, whole entry: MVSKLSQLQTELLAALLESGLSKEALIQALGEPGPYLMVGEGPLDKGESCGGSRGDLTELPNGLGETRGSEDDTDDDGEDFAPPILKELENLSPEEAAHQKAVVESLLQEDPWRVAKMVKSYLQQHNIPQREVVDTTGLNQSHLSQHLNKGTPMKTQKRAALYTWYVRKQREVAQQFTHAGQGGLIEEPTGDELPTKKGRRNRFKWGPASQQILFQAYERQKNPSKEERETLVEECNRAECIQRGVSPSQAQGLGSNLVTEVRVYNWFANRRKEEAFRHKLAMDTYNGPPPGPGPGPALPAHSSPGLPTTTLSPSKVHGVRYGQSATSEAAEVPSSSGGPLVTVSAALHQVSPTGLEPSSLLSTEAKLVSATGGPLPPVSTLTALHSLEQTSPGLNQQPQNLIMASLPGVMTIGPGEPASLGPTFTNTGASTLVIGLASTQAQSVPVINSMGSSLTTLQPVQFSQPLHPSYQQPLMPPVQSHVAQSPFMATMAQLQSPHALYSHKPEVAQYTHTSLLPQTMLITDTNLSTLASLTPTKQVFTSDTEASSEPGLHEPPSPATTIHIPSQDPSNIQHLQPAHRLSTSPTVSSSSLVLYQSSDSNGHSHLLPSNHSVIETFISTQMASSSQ
UniProt P28271: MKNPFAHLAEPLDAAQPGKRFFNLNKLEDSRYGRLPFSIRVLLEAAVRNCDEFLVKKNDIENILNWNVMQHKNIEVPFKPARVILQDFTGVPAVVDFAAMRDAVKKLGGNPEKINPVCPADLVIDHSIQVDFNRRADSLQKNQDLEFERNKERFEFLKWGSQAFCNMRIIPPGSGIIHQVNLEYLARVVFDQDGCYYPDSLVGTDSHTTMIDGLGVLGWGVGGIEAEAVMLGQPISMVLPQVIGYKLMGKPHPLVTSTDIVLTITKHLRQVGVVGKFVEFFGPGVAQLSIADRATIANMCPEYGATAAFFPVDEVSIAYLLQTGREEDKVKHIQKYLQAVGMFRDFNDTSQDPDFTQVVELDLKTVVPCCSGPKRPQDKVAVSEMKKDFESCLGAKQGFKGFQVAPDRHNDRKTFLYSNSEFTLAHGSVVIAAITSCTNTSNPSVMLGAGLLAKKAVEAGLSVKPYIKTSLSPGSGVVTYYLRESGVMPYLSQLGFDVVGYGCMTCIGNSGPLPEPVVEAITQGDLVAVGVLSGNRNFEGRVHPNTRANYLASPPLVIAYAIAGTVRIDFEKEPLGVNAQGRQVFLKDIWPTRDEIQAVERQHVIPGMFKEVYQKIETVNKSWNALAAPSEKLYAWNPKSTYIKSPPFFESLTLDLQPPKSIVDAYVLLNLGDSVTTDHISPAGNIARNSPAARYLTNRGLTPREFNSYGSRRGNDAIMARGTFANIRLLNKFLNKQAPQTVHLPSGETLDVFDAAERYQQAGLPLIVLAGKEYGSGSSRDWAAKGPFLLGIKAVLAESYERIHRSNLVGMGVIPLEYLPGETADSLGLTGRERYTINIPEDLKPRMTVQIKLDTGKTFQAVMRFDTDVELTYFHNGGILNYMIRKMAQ
UniProt P08207, whole entry: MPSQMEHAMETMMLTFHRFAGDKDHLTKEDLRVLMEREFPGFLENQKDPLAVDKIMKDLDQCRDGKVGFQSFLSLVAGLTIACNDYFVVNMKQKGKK
UniProt P11714: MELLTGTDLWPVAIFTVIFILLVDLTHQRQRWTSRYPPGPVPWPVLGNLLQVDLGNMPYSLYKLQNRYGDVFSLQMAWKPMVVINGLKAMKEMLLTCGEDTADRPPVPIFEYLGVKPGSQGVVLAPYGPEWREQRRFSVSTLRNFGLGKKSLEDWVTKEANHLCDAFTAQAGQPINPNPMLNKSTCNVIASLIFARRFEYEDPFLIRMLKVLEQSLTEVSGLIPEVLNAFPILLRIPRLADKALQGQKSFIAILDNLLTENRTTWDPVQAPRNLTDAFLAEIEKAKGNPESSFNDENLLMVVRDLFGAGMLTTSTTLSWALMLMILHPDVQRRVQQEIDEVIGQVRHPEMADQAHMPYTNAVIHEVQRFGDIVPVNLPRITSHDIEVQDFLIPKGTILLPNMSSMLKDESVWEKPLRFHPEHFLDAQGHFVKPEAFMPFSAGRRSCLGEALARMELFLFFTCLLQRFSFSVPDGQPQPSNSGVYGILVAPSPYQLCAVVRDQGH
UniProt P19536: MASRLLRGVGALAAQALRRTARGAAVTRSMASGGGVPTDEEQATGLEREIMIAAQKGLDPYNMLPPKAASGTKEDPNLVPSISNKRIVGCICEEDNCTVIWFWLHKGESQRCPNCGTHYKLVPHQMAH
UniProt P25322, whole entry: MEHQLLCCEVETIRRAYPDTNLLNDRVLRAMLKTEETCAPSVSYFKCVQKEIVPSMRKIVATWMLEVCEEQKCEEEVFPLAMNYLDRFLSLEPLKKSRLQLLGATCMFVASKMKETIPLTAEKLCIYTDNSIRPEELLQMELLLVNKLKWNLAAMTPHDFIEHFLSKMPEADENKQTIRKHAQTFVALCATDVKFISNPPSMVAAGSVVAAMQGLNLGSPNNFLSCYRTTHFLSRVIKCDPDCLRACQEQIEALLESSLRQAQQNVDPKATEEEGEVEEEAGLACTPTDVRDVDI
UniProt P08228, whole entry: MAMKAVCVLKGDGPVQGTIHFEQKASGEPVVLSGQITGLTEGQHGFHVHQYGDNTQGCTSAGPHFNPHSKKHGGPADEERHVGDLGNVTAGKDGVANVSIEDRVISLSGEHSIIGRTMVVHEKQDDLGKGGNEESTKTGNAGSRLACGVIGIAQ
UniProt P26231: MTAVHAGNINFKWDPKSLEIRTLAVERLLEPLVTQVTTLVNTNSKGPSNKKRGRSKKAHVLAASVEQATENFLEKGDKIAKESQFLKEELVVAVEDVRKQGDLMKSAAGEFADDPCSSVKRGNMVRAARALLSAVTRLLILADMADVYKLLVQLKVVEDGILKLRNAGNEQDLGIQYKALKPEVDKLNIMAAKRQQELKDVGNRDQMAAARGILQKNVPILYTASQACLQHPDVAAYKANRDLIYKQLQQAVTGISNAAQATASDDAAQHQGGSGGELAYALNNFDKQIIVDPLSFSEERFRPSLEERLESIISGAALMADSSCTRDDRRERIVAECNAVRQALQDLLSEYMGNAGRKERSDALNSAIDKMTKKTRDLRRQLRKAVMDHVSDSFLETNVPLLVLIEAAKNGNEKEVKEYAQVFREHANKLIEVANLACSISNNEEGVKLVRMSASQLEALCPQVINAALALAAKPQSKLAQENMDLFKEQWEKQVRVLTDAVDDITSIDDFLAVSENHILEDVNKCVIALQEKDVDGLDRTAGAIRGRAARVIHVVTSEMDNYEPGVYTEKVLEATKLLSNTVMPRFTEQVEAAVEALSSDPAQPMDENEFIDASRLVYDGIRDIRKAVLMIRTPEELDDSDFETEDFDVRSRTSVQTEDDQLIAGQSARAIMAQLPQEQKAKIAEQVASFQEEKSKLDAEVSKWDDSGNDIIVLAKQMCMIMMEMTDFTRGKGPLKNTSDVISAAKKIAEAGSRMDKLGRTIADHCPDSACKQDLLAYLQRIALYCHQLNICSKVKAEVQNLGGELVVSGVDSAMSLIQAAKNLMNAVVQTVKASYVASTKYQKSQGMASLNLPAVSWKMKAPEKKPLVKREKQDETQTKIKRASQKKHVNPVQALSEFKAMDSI
UniProt P28033: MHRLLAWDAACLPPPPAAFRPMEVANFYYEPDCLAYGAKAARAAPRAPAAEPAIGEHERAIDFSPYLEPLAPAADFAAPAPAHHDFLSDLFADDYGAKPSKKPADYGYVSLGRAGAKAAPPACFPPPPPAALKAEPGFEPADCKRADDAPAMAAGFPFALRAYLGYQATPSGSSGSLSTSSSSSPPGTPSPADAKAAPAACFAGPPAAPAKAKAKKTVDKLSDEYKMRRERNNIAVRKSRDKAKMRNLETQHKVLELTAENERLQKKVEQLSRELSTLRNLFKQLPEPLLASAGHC
UniProt P17751: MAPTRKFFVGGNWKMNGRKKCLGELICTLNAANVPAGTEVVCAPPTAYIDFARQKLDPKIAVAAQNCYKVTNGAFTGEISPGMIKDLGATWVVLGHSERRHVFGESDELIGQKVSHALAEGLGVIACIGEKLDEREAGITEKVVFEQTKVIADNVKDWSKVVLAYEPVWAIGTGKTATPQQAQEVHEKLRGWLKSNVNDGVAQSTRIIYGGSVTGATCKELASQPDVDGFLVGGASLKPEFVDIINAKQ
UniProt P16951: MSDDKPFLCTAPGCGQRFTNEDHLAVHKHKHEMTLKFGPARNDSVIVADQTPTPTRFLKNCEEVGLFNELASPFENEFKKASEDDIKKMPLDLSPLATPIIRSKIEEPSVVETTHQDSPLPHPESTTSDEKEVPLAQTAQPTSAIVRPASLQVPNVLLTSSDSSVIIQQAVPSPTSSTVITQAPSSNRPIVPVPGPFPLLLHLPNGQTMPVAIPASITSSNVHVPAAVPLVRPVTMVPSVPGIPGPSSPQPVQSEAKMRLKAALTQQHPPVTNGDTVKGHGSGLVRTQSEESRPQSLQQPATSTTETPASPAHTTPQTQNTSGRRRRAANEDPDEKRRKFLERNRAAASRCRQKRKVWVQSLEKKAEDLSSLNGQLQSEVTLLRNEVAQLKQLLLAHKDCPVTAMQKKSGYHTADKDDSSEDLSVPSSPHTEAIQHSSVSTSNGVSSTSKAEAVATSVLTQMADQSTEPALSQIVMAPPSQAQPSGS
UniProt P24456: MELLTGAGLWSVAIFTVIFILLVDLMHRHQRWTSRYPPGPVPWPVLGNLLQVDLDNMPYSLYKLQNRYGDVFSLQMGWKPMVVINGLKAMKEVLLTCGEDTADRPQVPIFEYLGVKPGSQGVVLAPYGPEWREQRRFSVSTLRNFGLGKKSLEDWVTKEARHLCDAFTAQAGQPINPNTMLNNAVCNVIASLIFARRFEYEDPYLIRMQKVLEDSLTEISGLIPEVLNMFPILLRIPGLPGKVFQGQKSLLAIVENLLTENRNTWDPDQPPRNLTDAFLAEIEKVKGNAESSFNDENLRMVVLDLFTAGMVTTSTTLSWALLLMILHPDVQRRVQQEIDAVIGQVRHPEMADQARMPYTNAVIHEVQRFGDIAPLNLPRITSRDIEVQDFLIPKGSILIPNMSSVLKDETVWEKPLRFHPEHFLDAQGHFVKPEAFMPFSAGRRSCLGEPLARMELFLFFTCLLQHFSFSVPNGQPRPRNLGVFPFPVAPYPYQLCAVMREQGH
UniProt P28076: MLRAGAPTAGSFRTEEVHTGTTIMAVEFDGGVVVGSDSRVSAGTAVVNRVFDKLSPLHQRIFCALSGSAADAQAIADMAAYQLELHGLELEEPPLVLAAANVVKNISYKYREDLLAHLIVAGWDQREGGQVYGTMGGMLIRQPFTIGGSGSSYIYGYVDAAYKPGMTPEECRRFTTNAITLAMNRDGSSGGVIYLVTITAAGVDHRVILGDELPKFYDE
UniProt P04117: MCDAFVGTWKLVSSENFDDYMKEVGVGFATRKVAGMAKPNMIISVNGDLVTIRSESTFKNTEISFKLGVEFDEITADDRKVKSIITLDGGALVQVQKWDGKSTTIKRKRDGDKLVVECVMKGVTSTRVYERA

Compound in this assay: CN[C@@H]1C[C@H]2O[C@@](C)([C@@H]1OC)n1c3ccccc3c3c4c(c5c6ccccc6n2c5c31)C(=O)NC4 [staurosporine]
The assay is described as follows: log2 fold change of pooled soluble protein (PISA), ligand vs vehicle (log2 ratio); higher = more thermally stabilized. The settings on record: ligand concentration: 20 uM; assay format: PISA pool 52.9/55.5/58.6 C.
With UniProt P11835, the “log2 fold change of pooled soluble protein” value (“log2 fold change” below) is -0.0541.

For UniProt P22907, the “log2 fold change” value was -0.243.

As for UniProt P24452, the “log2 fold change” value is -0.0667.

Consider UniProt P14148, for which the “log2 fold change” value was -0.0537.

For UniProt P02798, the “log2 fold change” value is -0.494.

Regarding UniProt P18608, the “log2 fold change” value came to 0.0304.

As for UniProt P19157, the “log2 fold change” value was -0.112.

For the target UniProt P14115, the “log2 fold change” value is -0.178.

For UniProt P23591, the “log2 fold change” value worked out at 0.104.

As to UniProt P11725, the “log2 fold change” value is -0.00397.

Regarding UniProt P20918, the “log2 fold change” value is 0.00616.

As to UniProt P22361, the “log2 fold change” value was -0.259.

For the target UniProt P04247, the “log2 fold change” value was -0.322.

In the case of UniProt P17918, the “log2 fold change” value is -0.0213.

Take UniProt P06909: the “log2 fold change” value is -0.0439.

Take “P10853;P10854;Q64475;Q64478;Q64525;Q6ZWY9;Q8CGP1;Q8CGP2”: the “log2 fold change” value was -0.0227.

In the case of UniProt P28271, the “log2 fold change” value amounted to 0.032.

With UniProt P08207, the “log2 fold change” value was -0.183.

Take UniProt P11714: the “log2 fold change” value stood at 0.149.

Turning to UniProt P19536, the “log2 fold change” value is -0.11.

For UniProt P25322, the “log2 fold change” value was -0.0992.

In the case of UniProt P08228, the “log2 fold change” value is 0.0268.

On to UniProt P17742, for which the “log2 fold change” value was -0.104.

Consider UniProt P11680, for which the “log2 fold change” value was -0.116.

As for UniProt P26231, the “log2 fold change” value is -0.0517.

Take UniProt P28033: the “log2 fold change” value worked out at 0.292.

With UniProt P06684, the “log2 fold change” value was 0.000162.

With UniProt P17751, the “log2 fold change” value was -0.0215.

Consider UniProt P16951, for which the “log2 fold change” value is 0.104.

UniProt P17717: the “log2 fold change” value is -0.178.

Regarding UniProt P24456, the “log2 fold change” value amounted to 0.175.

For UniProt P11862, the “log2 fold change” value was -0.0147.

UniProt P16331: the “log2 fold change” value came out at 0.165.

Take UniProt P15864: the “log2 fold change” value is -0.143.

Take UniProt P28076: the “log2 fold change” value is -0.0224.

Turning to UniProt P27786, the “log2 fold change” value came out at 0.246.

For the target UniProt P04117, the “log2 fold change” value is 0.00991.

(Values after the supplement of paper PMC12819154, “High-throughput peptide-centric local stability assay extends protein–ligand identification to membrane proteins, tissues and bacteria” (Nature Structural & Molecular Biology, 2025).)
